Results as given in publication doi:10.1101/209262.
Read-outs that look alike come from different tables or passages of the source. Results are given in words; binding and its absence hold for the method and conditions named. Some entries that bind do so weakly or less than the wild type. For some of these results: Tags and fused reporters may be left off the sequences shown. Blank lines part the entries; values can stand above or below the molecule they belong to.

By UniProt entry, the sequences of proteins in these tests, tags left out. Residues count along the entry.
UniProt P26039, residues 1-433: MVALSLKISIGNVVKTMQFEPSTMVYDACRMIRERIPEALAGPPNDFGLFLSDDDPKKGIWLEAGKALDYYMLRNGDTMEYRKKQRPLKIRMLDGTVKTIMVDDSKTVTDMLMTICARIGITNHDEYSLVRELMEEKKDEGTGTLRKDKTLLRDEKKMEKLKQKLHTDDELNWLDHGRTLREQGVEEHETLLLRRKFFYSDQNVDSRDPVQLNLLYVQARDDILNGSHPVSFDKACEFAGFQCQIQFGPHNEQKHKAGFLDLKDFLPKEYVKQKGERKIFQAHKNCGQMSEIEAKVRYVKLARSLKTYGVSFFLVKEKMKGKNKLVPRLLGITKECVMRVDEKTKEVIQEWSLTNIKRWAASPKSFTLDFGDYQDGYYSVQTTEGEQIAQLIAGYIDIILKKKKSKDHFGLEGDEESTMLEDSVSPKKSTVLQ

Columns and labels:
[1] = biological target: GST-Fos-β1 integrin chimera (human); assay: ProLIF
[2] = biological target: GST-Fos-β1 integrin chimera (human); assay: ProLIF; remark: listed apart in the source
[3] = biological target: GST-Fos-β1 integrin chimera (human); assay: ProLIF; remark: listed apart in the source
[4] = biological target: MBP-Jun-α5 integrin chimera (human) (UniProt P08648); assay: co-IP

binding [1]: binds
binding [2]: binds
binding [3]: binds
Molecule: Talin FERM-EGFP (mouse talin1 residues 1-433) (from UniProt P26039 1-433) (domain or fragment)

binding [4]: binds
B1: GST-Fos-β1 integrin chimera (protein)
chain: GSGGGASLDELEAEIEQLEEENYALEKEIEDLEKELEKLGAPGTGPDIIPIVAGVVAGIVLIGLALLLIWKLLMIIHDRREFAKFEKEKMNAKWDTGENPIYKSAVTTVVNPKYEGK
